Assay results reported in paper doi:10.1101/2024.03.07.581839 (bioRxiv, 2024).
Like-named read-outs stand apart in the source and are kept apart here. These are yes or no findings as the source states them, for the method shown. Some entries that bind do so weakly or less than the wild type.

Key:
human GPR156 (human) [1] = biological target: human GPR156 (human) (UniProt Q8NFN8); assay: cryo-EM structure
human GPR156 (human) [2] = biological target: human GPR156 (human) (UniProt Q8NFN8); assay: cryo-EM structure; remark: listed apart in the source

- binding (human GPR156 (human) [1]): binds
- binding (human GPR156 (human) [2]): binds
B1: human GPR156 (receptor)
chain: MEPEINCSELCDSFPGQELDRRPLHDLCKTTITSSHHSSKTISSLSPVLLGIVWTFLSCGLLLILFFLAFTIHCRKNRIVKMSSPNLNIVTLLGSCLTYSSAYLFGIQDVLVGSSMETLIQTRLSMLCIGTSLVFGPILGKSWRLYKVFTQRVPDKRVIIKDLQLLGLVAALLMADVILLMTWVLTDPIQCLQILSVSMTVTGKDVSCTSTSTHFCASRYSDVWIALIWGCKGLLLLYGAYLAGLTGHVSSPPVNQSLTIMVGVNLLVLAAGLLFVVTRYLHSWPNLVFGLTSGGIFVCTTTINCFIFIPQLKQWKAFEEENQTIRRMAKYFSTPNKSFHTQYGEEENCHPRGEKSSMERLLTEKNAVIESLQEQVNNAKEKIVRLMSAECTYDLPEGAAPPASSPNKDVQAVASVHTLAAAQGPSGHLSDFQNDPGMAARDSQCTSGPSSYAQSLEGPGKDSSFSPGKEEKISDSKDFSDHLDSGCSQKPWTEQSLGPERGDQVPMNPSQSLLPERGGSDPQRQRHLENSEEPPERRSRVSSVIREKLQEVLQDLGLGPEASLSTAPSCHQQTWKNSAAFSPQKMPLSKELGFSPYMVRRRRAAQRARSHFPGSAPSSVGHRANRTVPGAHSRLHVQNGDSPSLAPQTTDSRVRRPSSRKPSLPSDPQDRPGTLEGSKQSQTEPEGARGSKAAFLRQPSGSGRAPSPAAPCLSKASPDLPEQWQLWPPVPSGCASLSSQHSYFDTESSSSDEFFCRCHRPYCEICFQSSSDSSDSGTSDTDPEPTGGLASWEKLWARSKPIVNFKDDLKPTLV
